Laboratory results published in US8354265B2, “Chemicals promoting the growth of N-acylhomoserine lactone-degrading bacteria” (Centre National de la Recherche Scientifique, priority 2007, dated 2013).
Some entries share one result that the patent states for a list of compounds. Some ranges recur; such a range may be that of the whole group of compounds.

Legend:
[1] = test system: bacterial consortia from unplanted soil; test: C6-HSL inactivation by bacterial consortia enriched from unplanted soil on the compound as sole carbon source; type: cell-based; details: C6-HSL 25 μM at start; for introduced C6-HSL inactivated by consortia: incubation time 24 hours; for C6-HSL signal inactivated by consortia: incubation time 5 hours
[2] = test system: bacteria recovered from the consortia; test: NAHL production and inactivation by isolates recovered from the consortia, with rrs identification; type: cell-based

In the case of `N[C@H]1CCOC1=O` [HSL, homoserine lactone], the “introduced C6-HSL inactivated by consortia” value (shortened to “introduced C6-HSL inactivated”) [1] is reported as “more than 90%”.
`CCCC1CCC(=O)O1` (stereo not shown) [HTN, 4-heptanolide] was tested, and the “C6-HSL signal inactivated by consortia” value [1] was “more than 90%”, the “introduced C6-HSL inactivated” value [1] was “more than 90%” and the “abundance of NAHL-degrading bacteria in consortia” value [2] was 40-50%.
With `N[C@@H](CCO)C(=O)O` [HS, L-homoserine] the “introduced C6-HSL inactivated” value [1] was “more than 90%”.
With `O=C1CCCCCO1` [6CL, 6-caprolactone, reference compound] the “C6-HSL signal inactivated by consortia” value [1] was “more than 90%” and the “introduced C6-HSL inactivated” value [1] was “more than 90%”.
